Binding signal data for 42 sequences are collected here from article PMC7819943, “Rice protein-binding microarrays: a tool to detect cis-acting elements near promoter regions in rice”.

Some of the results follow.

The experiment deals with T1, OsSMF1 (Oryza sativa, UniProt Q6ZLB0 1-436).
T1 sequence: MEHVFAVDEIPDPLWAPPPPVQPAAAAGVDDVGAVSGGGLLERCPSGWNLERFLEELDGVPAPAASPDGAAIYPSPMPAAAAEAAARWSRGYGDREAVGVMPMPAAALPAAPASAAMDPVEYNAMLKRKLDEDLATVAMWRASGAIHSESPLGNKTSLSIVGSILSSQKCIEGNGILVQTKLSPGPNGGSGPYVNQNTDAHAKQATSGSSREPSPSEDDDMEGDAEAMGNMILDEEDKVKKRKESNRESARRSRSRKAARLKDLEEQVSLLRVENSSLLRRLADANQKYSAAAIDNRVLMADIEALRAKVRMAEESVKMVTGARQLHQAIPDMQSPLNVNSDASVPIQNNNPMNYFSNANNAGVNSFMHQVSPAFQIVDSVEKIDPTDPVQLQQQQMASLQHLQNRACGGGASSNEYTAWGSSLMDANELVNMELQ
Briefly: protein-binding microarray (RPBM); PBS, 2% BSA, 51.3 ng/ul salmon testes DNA, 50 uM zinc acetate, 200 nM TF, 25 C, 1 h; high values mean tight binding. Particulars: protein: recombinant; tags: N-terminal polyhistidine and DsRed monomer fusion (pET32a); chain copies: 2; label: CyDye5-dUTP incorporated in the synthesized complementary strand; 3' TTTTT single-stranded linker to array surface; dsDNA, one strand shown. The gist of the method: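 The binding signal is fluorescence intensity per array feature (arbitrary units). Readings came from an Axon 4000B scanner after a washed, 2% BSA-blocked, double-stranded custom Agilent array had been incubated for 1 h at 25 °C with 200 nM protein and 50 µM zinc acetate. The protein was a Ni–NTA-purified transcription factor fused N-terminally to polyhistidine and DsRed, expressed in E. coli BL21-CodonPlus.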
On to “ATAAGTTGTTACCTAGAATGAAACATGATGTGGCAATGACCGGAGTCACCTAGTGCAG”, for which the binding signal was 7660 fluorescence intensity (a.u.). As for “CCATAGAGGTCTCGAGAGTGCTGATAGTAACTCATAACTGCGGAGTCACCTAGTGCAG”, the figure is 3490 fluorescence intensity (a.u.); as for “TACCGCATCTGACGCCTCCGCATCCAAAGCAACGTCATGGCGGAGTCACCTAGTGCAG”, 5290 fluorescence intensity (a.u.); as for “GCCACACGCGGCGCACGCCAGCGCGAGCCACATGGCGTCCCGGAGTCACCTAGTGCAG”, 6430 fluorescence intensity (a.u.). On to “GTTACCATAGGGTTGGTTATGTCACTAAAGAACCCATGTCCGGAGTCACCTAGTGCAG”, for which the binding signal was 3290 fluorescence intensity (a.u.).

On to “GAGCGCCTTGACACGTGAACATTCGCACATTTGACCTTCCCGGAGTCACCTAGTGCAG”, for which the binding signal is 3280 fluorescence intensity (a.u.).

For the sequence “GTGAGAATTCCAAGGCAATAATACACGTAAGGTACAGTAGCGGAGTCACCTAGTGCAG”, the binding signal is 7330 fluorescence intensity (a.u.).

As for “GTCTCGTCTCGTCTCGTCTCGTCTCGTGTCGCCTCAACCCCGGAGTCACCTAGTGCAG”, the binding signal was 3300 fluorescence intensity (a.u.).

Turning to “GTGGTAAACTGGTAAGAGCAAGTATAATAAAAGGATGTGCCGGAGTCACCTAGTGCAG”, the binding signal is 5560 fluorescence intensity (a.u.).

Regarding “AAATATGAGTATGACGCGTGTGCCAAAATACTAATAAAATCGGAGTCACCTAGTGCAG”, the binding signal is 3340 fluorescence intensity (a.u.). Turning to “TGTGTGACTGTGTGCGACCCTGGTCAGGTCAACTCCGCGACGGAGTCACCTAGTGCAG”, the binding signal is 3600 fluorescence intensity (a.u.).

For “TTTGAATGTCCATTATTCTGAAATCTGAAACATATATTCACGGAGTCACCTAGTGCAG”, the binding signal is 5190 fluorescence intensity (a.u.). As for “GGCGACGGTGCGCTGCGTTGTCCTAGTGTTTGTCCTTGTCCGGAGTCACCTAGTGCAG”, the figure is 4320 fluorescence intensity (a.u.); as for “GTGCGCGCGGTGCTTAGGCAGACGCGGCCCAGATCGGCGCCGGAGTCACCTAGTGCAG”, 40500 fluorescence intensity (a.u.). With “TCCAAATCCTATGAAATTCCTATGGAAATCCACGTTGCATCGGAGTCACCTAGTGCAG”, the binding signal was 7670 fluorescence intensity (a.u.). For the sequence “ACAATTTTAATGAAATCGTACATTATACTATATATGTTTTCGGAGTCACCTAGTGCAG”, the binding signal was 3150 fluorescence intensity (a.u.).

As to “GCTCGCCGACCTCCTCCTATTAAAACCCGATGATTCCGTGCGGAGTCACCTAGTGCAG”, the binding signal is 28400 fluorescence intensity (a.u.). As for “ATGTAGTCGTAGCAGAACGTCGATGGTGGAGATGTAGTCACGGAGTCACCTAGTGCAG”, the figure is 3830 fluorescence intensity (a.u.); as for “CACAAATTTGAACAAACACATTCATGATTCATCCCCTCCACGGAGTCACCTAGTGCAG”, 4930 fluorescence intensity (a.u.); as for “AATATTGACCTGAATACTTGATGCCATCTGACGCATATGTCGGAGTCACCTAGTGCAG”, 5740 fluorescence intensity (a.u.). As for “CTCCTCCCCTTTCACGCCGCCGCTCCGCCCCGCCACCCTCCGGAGTCACCTAGTGCAG”, the figure is 3710 fluorescence intensity (a.u.). As for “GCGGCTTGCGTAAGCCCGTATAAGTTCACGGGTTACACTGCGGAGTCACCTAGTGCAG”, the figure is 7160 fluorescence intensity (a.u.). On to “GACGAGTACTATAATATCTGACACACTCATACCCCAGTGTCGGAGTCACCTAGTGCAG”, for which the binding signal is 4420 fluorescence intensity (a.u.). As for “CGCGCCGCCTCTCCTTGTTGTCTCGTCGCGCGCCGGCGCCCGGAGTCACCTAGTGCAG”, the figure is 4820 fluorescence intensity (a.u.); as for “TTTGCATTAAATATGACAGCAATATATCTATCTCATCCAACGGAGTCACCTAGTGCAG”, 23200 fluorescence intensity (a.u.); as for “TCCAACCTAAGCTACCCAACACACCTGACGACTTGCTATACGGAGTCACCTAGTGCAG”, 3350 fluorescence intensity (a.u.). Consider “AAGATTTCCAGTCATCAGTCTGAGCGAGCTGTGCTTGTTGCGGAGTCACCTAGTGCAG”, for which the binding signal is 4690 fluorescence intensity (a.u.). As for “ATTGAACATCTGTGTGACACGTGCCTTAGCACAAATCGTACGGAGTCACCTAGTGCAG”, the figure is 5600 fluorescence intensity (a.u.); as for “TTCAACAGGCCTGACTCAACAAATTTGTGAAATTATTATGCGGAGTCACCTAGTGCAG”, 4140 fluorescence intensity (a.u.); as for “CTTCCTCGTCGATGGGTATCTCGTGTATGATGTCCTCCTCCGGAGTCACCTAGTGCAG”, 3410 fluorescence intensity (a.u.). As for “TTCAATTACACAGGTCAATTCGGTTTTCTTAGTGACCAACCGGAGTCACCTAGTGCAG”, the figure is 26100 fluorescence intensity (a.u.).

For the sequence “ATTCCATATGTACAGATTGCACGTTGTCTAAAGTATGACACGGAGTCACCTAGTGCAG”, the binding signal is 4070 fluorescence intensity (a.u.). In the case of “TAGTCATAAGTGCTATAGTAACCCACGTATGCTAATGACGCGGAGTCACCTAGTGCAG”, the binding signal is 7340 fluorescence intensity (a.u.). For “TAGTTTTCCTGGTTAGAGGACATCGGAGTAGCGCCGATGGCGGAGTCACCTAGTGCAG”, the binding signal is 3470 fluorescence intensity (a.u.).

With “CCGTCCCCGCCGCGCTGACGTACTACTGGAGGATGTCCATCGGAGTCACCTAGTGCAG”, the binding signal is 4220 fluorescence intensity (a.u.). As for “ATCCACCGTCGTGTCGCCCACTGTCCAACTGCCAGTCAGCCGGAGTCACCTAGTGCAG”, the figure is 3480 fluorescence intensity (a.u.); as for “ATTACATGTTCCCCACCAGTGACAACACACTGATCAGACCCGGAGTCACCTAGTGCAG”, 4300 fluorescence intensity (a.u.). For “TCGCTACAAGATCTGAGTCAACGTGTCACGCGCTGCGCCTCGGAGTCACCTAGTGCAG”, the binding signal was 12400 fluorescence intensity (a.u.).

Take “TGCGTACAAAGGTTTGATATGGGGAGTGGGTATCAAACGACGGAGTCACCTAGTGCAG”: the binding signal is 3690 fluorescence intensity (a.u.). Turning to “CACTTCCATCCTTTCTTGTACAGTTGTACTGTTGTTACCTCGGAGTCACCTAGTGCAG”, the binding signal is 3740 fluorescence intensity (a.u.). With “CGATCATATAGGGACGCCACGTCAATAAGAAACTATACCCCGGAGTCACCTAGTGCAG”, the binding signal is 12000 fluorescence intensity (a.u.). As for “CCATCTGTATCCACGTCCGCATCACTCTCATCCCTACCGTCGGAGTCACCTAGTGCAG”, the figure is 17800 fluorescence intensity (a.u.).
